Data on four molecules can be found in paper doi:10.1101/177980.

Protein sequences, listed by entry. Tags and fused reporters are not part of them. Lines headed by an entry give the natural chain unless they say otherwise; changes in a name come on top. Chains listed by the source or under a name are the forms on record and can include a tag or linker.
UniProt O43809: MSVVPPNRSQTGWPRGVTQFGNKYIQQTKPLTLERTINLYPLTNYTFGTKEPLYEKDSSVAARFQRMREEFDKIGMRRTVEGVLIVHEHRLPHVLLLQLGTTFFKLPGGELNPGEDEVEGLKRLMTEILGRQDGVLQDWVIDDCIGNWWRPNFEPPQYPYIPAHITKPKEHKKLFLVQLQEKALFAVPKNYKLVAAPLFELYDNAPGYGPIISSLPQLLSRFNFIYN
UniProt Q16630: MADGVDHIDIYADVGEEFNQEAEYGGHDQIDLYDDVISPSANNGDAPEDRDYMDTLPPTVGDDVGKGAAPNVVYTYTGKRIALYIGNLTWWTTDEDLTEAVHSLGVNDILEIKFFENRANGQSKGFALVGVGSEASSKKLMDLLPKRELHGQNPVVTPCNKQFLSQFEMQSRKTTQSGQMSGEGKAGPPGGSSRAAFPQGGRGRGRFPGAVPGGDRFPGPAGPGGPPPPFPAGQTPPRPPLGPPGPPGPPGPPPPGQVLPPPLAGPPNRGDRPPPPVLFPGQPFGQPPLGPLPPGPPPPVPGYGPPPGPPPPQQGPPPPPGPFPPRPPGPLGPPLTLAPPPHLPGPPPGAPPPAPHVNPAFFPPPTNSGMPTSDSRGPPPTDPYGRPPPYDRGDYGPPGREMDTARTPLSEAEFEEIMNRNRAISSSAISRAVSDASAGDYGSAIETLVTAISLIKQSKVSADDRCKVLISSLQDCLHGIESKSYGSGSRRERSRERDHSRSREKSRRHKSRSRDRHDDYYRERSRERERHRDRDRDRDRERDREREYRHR
CFIm68 RS1 S-to-A (Q16630, form named): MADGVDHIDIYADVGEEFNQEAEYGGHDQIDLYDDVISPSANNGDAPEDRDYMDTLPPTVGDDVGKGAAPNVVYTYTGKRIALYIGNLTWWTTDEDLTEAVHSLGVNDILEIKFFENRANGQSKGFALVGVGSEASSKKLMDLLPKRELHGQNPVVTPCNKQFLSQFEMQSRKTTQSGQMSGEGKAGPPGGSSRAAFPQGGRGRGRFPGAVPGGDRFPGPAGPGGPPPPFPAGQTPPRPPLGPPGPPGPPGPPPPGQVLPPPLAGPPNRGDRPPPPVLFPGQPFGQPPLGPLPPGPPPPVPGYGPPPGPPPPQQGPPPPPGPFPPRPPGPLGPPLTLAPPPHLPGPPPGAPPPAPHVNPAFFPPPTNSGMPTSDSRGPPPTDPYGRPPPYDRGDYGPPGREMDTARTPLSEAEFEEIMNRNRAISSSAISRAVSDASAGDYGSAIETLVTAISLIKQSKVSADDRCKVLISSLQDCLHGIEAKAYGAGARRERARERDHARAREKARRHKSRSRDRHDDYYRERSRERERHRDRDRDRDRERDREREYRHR

Like-named read-outs stand apart in the source and are kept apart here. These are yes or no findings as the source states them, for the method shown. Binding seen in cells or lysates may run through a third protein. Some entries that bind do so weakly or less than the wild type.

Experiment [1] concerns the target CFIm25 (cleavage factor Im 25 kDa subunit), endogenous (human (endogenous in HEK293 Flp-In T-REx)) (UniProt O43809). Description: co-IP.
For experiment [2] the target is unchanged. The experiment can be described thus: co-IP. This is another data set of the same source.

For the molecule “CFIm68 RS1 S-to-A (from UniProt Q16630 1-551)”, the binding entry in experiment [1] is listed as “binds”. Still for that read-out and setting: the value for “CFIm68 S511A S513A S525A (RS2 S-to-A) (from UniProt Q16630 1-551)” was “binds”; that for “CFIm68, endogenous in HEK293 Flp-In cells (from UniProt Q16630 1-551)” was “binds”.

B1: CFIm59 (cleavage factor Im 59 kDa subunit), endogenous (protein, UniProt Q8N684 1-471)
chain: MSEGVDLIDIYADEEFNQDPEFNNTDQIDLYDDVLTATSQPSDDRSSSTEPPPPVRQEPSPKPNNKTPAILYTYSGLRNRRAAVYVGSFSWWTTDQQLIQVIRSIGVYDVVELKFAENRANGQSKGYAEVVVASENSVHKLLELLPGKVLNGEKVDVRPATRQNLSQFEAQARKRECVRVPRGGIPPRAHSRDSSDSADGRATPSENLVPSSARVDKPPSVLPYFNRPPSALPLMGLPPPPIPPPPPLSSSFGVPPPPPGIHYQHLMPPPPRLPPHLAVPPPGAIPPALHLNPAFFPPPNATVGPPPDTYMKASAPYNHHGSRDSGPPPSTVSEAEFEDIMKRNRAISSSAISKAVSGASAGDYSDAIETLLTAIAVIKQSRVANDERCRVLISSLKDCLHGIEAKSYSVGASGSSSRKRHRSRERSPSRSRESSRRHRDLLHNEDRHDDYFQERNREHERHRDRERDRHH
modifications: phosphorylated (pIMAGO signal)
On to B1, for which the binding result in experiment [2] is “binds”.
